Test results taken from patent US9585840B1, “Redox active cerium oxide nanoparticles and associated methods” (University of Central Florida Research Foundation, Inc., priority 2009, dated 2017).
Some of these results come from one statement about several compounds together.

Tested on: SCL-1 tumor cells
Test: Invasion assay, matrigel-coated transwells
Format: cell-based, human
Details: SCL-1 pretreated with NAC (5.0 mM, 4 h) or selenite (0.5 μM, 24 h)

CC(=O)N[C@@H](CS)C(=O)O [NAC, N-acetyl-L-cysteine]
increase in the number of invading tumor cells compared to CM^MF: 2.5- to 3.5 fold
